Reference: PubChem BioAssay (EPA / NIEHS)
All entries are inconclusive by the source's own rule. Clear calls are listed elsewhere. The calls were made as follows: active = hit-call score of the fitted dose curve at least 0.9, where 1 is the maximum; inconclusive = response in the unintended direction; inactive = score below 0.9.

Protein sequences, listed by entry. Tags and fused reporters are not part of them.
UniProt Q13133, whole entry: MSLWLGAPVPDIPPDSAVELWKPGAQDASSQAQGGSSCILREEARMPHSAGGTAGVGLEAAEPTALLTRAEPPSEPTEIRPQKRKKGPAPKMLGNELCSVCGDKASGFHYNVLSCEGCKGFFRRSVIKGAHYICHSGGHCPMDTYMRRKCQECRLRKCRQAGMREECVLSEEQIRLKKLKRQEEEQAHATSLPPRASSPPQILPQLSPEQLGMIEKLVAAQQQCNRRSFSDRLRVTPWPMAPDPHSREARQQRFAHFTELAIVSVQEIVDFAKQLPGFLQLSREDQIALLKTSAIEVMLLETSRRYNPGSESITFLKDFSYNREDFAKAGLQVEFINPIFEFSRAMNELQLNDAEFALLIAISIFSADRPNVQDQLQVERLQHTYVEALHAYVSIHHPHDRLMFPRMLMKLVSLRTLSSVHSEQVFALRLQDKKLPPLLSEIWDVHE
UniProt P43354, whole entry: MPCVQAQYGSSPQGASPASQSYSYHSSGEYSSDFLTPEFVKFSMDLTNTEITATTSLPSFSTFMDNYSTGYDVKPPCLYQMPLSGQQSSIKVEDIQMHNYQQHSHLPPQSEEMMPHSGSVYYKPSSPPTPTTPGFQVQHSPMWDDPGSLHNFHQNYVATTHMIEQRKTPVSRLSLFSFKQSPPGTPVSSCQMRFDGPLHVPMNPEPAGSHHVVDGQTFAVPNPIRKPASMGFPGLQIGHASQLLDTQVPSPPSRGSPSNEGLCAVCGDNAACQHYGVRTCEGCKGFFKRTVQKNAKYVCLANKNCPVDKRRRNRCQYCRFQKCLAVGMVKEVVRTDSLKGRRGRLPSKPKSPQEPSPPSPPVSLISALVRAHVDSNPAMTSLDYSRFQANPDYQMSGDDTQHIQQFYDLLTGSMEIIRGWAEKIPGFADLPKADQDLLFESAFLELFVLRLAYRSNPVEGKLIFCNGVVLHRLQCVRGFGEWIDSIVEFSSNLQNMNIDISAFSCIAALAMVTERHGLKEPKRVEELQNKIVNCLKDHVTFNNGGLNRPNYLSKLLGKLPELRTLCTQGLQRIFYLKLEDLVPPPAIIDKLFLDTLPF
UniProt Q07869, whole entry: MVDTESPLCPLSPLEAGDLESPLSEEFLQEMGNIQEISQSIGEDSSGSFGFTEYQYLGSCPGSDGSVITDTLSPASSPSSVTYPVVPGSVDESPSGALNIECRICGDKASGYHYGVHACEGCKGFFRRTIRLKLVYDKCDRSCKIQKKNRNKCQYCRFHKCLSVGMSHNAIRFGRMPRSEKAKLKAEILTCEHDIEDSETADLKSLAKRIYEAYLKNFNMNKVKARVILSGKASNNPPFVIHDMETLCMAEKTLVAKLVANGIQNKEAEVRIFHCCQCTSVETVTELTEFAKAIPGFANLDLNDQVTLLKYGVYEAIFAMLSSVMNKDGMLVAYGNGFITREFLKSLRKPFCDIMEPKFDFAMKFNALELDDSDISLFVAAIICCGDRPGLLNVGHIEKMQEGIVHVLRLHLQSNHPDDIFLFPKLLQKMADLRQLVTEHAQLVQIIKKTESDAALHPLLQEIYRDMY
UniProt Q03181, whole entry: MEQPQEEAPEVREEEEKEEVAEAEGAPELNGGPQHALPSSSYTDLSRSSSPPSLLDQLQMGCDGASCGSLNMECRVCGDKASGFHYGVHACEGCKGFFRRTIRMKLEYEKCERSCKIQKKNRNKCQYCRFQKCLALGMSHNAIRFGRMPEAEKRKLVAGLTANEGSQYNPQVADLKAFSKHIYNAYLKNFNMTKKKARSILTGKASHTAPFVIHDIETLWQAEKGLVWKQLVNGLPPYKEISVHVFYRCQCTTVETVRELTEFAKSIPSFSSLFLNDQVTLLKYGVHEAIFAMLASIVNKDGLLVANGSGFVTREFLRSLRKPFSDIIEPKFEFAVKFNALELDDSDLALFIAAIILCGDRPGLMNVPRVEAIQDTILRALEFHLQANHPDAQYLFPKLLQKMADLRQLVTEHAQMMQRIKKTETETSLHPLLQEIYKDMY
UniProt P10276, whole entry: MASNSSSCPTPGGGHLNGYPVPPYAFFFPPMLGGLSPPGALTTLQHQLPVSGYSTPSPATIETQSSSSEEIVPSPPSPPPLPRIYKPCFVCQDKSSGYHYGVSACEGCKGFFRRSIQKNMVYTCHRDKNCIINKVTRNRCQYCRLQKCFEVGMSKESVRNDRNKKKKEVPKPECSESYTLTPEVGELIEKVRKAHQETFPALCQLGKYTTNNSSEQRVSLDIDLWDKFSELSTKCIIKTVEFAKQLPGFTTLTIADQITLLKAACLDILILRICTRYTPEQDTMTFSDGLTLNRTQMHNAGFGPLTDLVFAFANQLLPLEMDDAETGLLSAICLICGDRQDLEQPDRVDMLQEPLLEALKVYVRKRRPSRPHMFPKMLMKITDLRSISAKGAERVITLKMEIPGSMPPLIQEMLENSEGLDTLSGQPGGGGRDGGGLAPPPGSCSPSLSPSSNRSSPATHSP
UniProt P37231, whole entry: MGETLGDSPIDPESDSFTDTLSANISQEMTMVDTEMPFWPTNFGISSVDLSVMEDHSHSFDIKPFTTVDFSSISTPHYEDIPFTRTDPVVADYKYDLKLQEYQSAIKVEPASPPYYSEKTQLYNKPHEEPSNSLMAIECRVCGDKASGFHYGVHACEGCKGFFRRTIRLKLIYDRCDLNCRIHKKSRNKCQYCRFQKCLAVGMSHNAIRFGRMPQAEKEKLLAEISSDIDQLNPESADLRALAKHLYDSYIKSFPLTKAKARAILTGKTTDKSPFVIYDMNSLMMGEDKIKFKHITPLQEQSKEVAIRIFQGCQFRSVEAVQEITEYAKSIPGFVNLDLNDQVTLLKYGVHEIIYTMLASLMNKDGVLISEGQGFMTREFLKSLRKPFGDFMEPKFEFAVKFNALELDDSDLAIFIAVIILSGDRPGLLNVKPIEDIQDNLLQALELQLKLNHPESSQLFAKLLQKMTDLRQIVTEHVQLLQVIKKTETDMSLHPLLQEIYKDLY
UniProt P51449, whole entry: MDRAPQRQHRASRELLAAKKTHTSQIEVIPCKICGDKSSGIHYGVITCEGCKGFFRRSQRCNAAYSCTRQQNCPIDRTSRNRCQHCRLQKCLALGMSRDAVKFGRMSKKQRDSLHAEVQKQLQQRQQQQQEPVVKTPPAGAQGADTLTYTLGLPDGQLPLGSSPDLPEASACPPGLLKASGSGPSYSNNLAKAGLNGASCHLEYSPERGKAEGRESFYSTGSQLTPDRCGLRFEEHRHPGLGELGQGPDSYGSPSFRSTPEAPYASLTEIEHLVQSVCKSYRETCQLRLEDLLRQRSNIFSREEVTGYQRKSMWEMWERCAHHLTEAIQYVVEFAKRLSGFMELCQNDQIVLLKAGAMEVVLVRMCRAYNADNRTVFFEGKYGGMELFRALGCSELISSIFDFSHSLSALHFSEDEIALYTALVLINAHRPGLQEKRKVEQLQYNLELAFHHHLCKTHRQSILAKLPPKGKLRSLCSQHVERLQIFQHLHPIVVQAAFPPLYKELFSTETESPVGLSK
UniProt P28702, whole entry: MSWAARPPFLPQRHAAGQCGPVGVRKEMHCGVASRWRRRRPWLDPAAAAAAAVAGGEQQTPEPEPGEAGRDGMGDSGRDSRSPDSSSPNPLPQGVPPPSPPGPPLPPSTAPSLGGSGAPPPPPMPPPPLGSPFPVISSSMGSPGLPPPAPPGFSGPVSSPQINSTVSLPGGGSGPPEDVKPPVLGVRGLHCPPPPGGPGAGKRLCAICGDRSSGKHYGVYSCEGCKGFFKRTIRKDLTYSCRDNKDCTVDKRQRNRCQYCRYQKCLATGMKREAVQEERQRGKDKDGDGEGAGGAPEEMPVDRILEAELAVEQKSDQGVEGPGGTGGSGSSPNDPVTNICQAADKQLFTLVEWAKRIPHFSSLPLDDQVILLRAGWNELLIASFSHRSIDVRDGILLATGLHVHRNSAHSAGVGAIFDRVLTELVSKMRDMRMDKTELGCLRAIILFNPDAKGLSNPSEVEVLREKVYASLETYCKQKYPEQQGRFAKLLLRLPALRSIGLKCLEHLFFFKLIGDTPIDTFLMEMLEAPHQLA
UniProt P10827, whole entry: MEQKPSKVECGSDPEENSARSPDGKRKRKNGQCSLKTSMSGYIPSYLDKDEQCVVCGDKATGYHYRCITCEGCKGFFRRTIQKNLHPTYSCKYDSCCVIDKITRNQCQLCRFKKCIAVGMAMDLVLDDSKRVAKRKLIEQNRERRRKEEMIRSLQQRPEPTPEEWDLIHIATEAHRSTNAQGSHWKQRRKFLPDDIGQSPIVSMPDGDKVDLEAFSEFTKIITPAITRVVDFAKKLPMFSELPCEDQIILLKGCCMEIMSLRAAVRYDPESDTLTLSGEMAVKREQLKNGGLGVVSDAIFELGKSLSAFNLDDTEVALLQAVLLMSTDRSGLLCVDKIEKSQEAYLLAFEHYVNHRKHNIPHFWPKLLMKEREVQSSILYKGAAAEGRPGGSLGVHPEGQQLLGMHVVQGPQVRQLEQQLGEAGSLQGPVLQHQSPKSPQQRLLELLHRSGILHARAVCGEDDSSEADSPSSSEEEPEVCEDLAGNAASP
UniProt P11473, whole entry: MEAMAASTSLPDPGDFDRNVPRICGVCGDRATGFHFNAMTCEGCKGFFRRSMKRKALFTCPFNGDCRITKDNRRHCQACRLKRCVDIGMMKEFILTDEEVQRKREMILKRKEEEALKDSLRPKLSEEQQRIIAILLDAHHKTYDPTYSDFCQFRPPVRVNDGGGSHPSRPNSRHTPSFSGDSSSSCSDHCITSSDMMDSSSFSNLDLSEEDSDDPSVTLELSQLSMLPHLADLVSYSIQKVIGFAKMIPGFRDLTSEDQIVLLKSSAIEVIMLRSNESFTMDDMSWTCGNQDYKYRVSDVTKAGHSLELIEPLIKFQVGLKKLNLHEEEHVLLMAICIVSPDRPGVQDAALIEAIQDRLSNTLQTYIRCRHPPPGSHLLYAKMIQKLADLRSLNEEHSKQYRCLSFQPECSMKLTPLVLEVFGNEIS
UniProt Q01717, whole entry: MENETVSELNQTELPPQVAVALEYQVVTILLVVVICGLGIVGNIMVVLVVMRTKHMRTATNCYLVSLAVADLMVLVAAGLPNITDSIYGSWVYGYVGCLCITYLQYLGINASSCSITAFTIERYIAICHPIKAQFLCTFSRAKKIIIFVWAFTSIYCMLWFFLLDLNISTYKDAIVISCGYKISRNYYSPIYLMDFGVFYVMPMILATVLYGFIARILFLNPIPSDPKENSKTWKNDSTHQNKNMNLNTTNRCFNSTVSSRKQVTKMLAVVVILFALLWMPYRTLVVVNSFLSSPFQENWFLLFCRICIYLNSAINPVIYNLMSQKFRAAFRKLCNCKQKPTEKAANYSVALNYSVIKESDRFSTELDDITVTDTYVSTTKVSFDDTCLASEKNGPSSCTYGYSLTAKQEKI
UniProt O75469, whole entry: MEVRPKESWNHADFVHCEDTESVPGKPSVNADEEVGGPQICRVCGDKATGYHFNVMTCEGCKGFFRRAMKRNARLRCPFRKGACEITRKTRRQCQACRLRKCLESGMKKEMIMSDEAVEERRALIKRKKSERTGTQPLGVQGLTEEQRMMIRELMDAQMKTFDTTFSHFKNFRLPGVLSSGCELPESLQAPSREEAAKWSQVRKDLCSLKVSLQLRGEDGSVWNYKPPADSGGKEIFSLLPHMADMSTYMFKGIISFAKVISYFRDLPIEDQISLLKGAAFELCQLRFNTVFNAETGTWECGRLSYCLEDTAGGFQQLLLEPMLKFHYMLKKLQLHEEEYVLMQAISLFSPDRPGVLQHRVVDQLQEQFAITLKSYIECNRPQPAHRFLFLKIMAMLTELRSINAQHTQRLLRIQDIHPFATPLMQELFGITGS
UniProt P19793, whole entry: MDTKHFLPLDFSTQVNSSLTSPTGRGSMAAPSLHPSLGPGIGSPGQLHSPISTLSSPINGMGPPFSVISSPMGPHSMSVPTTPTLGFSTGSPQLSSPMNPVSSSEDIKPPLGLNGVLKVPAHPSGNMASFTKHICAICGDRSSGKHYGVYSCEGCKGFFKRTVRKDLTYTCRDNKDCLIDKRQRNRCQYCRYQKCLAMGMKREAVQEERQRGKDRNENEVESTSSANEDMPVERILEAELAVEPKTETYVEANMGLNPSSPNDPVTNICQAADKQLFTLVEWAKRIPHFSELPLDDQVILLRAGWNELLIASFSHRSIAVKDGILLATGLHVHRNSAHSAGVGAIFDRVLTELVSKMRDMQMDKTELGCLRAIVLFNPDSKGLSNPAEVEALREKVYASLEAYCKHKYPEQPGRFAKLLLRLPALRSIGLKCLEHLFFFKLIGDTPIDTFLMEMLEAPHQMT

Assays:
[1] = target: Oxysterols receptor LXR-alpha (Homo sapiens) (UniProt Q13133); test: ATG_LXRa_TRANS: Attagene TRANS-FACTORIAL HepG2 Assay for human Liver X Receptor alpha (LXRa) (AID 2282980); conditions: HepG2 Attagene TRANS reporter, LXRa transactivation
Summary of the method: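 HepG2 cells were transiently transfected with multiplexed reporter units driven by chimeric LXRa–GAL4 fusion proteins, then dosed for 24 h. Reporter mRNA was quantified by RT-PCR, fluorescent labelling and capillary electrophoresis; gain of signal fitted against DMSO baseline.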

[2] = ATG_M_06_TRANS: Attagene TRANS-FACTORIAL HepG2 Assay for M06 Transcription Factor (Internal Marker) (AID 2282983); conditions: HepG2 Attagene TRANS M06 internal marker reporter;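 also: potency for rise in reporter mRNA above DMSO baseline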
Summary of the method: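 HepG2 cells transiently transfected with multiplexed GAL4-UAS reporter transcription units; after 24 h compound exposure, reporter mRNA measured by RT-PCR, FAM-labelled primer extension, HpaI digestion and capillary electrophoresis. Gain-of-signal fitted versus DMSO baseline; background control readout.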

[3] = ATG_M_32_TRANS: Attagene TRANS-FACTORIAL HepG2 Assay for M32 Transcription Factor (Internal Marker) (AID 2282984); conditions: HepG2 Attagene TRANS M32 internal marker reporter
Summary of the method: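 Using transiently transfected HepG2 cells exposed to test chemicals for 24 h, reporter transcripts are converted to labelled cDNA fragments and quantified by capillary electrophoresis. DMSO defines the activity baseline.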

[4] = target: Nuclear receptor subfamily 4 group A member 2 (Homo sapiens) (UniProt P43354); test: ATG_NURR1_TRANS: Attagene TRANS-FACTORIAL HepG2 Assay for human Nuclear Receptor Related Protein 1 (NURR1) (AID 2282985); conditions: HepG2 Attagene TRANS reporter, mRNA readout
Summary of the method: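 Cells: HepG2, transiently transfected. Exposure: 24 h. Detection: fluorescence of labelled RT-PCR products separated by capillary electrophoresis; upward fit versus DMSO.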

[5] = target: human Peroxisome Proliferator-activated Receptor alpha (PPARa), PPARA (gene 5465) (UniProt Q07869); test: ATG_PPARa_TRANS: Attagene TRANS-FACTORIAL HepG2 Assay for human Peroxisome Proliferator-activated Receptor alpha (PPARa) (AID 2283001)
Summary of the method: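 Reporter transcripts from GAL4-UAS units in transfected HepG2 were quantified 24 h after dosing. Detection used reverse transcription, PCR, fluorescent primer extension and capillary electrophoresis, with DMSO as baseline.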

[6] = target: human Peroxisome Proliferator-activated Receptor delta (PPARd), PPARD (gene 5467) (UniProt Q03181); test: ATG_PPARd_TRANS: Attagene TRANS-FACTORIAL HepG2 Assay for human Peroxisome Proliferator-activated Receptor delta (PPARd) (AID 2283002)
Summary of the method: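 Read-out is induced reporter mRNA, quantified by RT-PCR with fluorescent labelling and capillary electrophoresis after 24 h dosing. Cells are HepG2 transiently carrying multiple GAL4-UAS reporter units driven by exogenous NR-GAL4 chimeras; DMSO serves as baseline.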

[7] = target: Retinoic acid receptor alpha (Homo sapiens) (UniProt P10276); test: ATG_RARa_TRANS: Attagene TRANS-FACTORIAL HepG2 Assay for human Retinoic Acid Receptor alpha (RARa) (AID 2283005);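 also: potency for increased reporter signal meaning RARa activation over DMSO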
Summary of the method: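 Reporter transcripts, measured by RT-PCR with fluorescent labeling and capillary electrophoresis after 24 h dosing, reflect activity of an exogenous human RARa–GAL4 fusion in transiently transfected HepG2. Fitted for increase relative to DMSO.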

[8] = target: Peroxisome proliferator-activated receptor gamma (Homo sapiens) (UniProt P37231); test: ATG_PPARg_TRANS: Attagene TRANS-FACTORIAL HepG2 Assay for human Peroxisome Proliferator-activated Receptor-gamma (PPARg) (AID 2283007)
Summary of the method: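 Twenty-four hours after chemical dosing of transiently transfected HepG2 cells, isolated RNA was converted to cDNA, reporter sequences amplified and 6-FAM-labelled, then HpaI-digested and analysed by capillary electrophoresis. Signal increase against DMSO was fitted.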

[9] = target: human Retinoic Acid Receptor gamma (RARg), RARG (gene 5916) (UniProt P13631); test: ATG_RARg_TRANS: Attagene TRANS-FACTORIAL HepG2 Assay for human Retinoic Acid Receptor gamma (RARg) (AID 2283009)
Summary of the method: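 HepG2, RARg-GAL4 TRANS system, 24 h exposure; reporter mRNA by RT-PCR + CE fluorescence; increase over DMSO.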

[10] = target: human RAR-related Orphan Receptor gamma (RORg), RORC (gene 6097) (UniProt P51449); test: ATG_RORg_TRANS: Attagene TRANS-FACTORIAL HepG2 Assay for human RAR-related Orphan Receptor gamma (RORg) (AID 2283011)
Summary of the method: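 Readout: reporter transcript induction (RT-PCR, fluorescent primer extension, capillary electrophoresis) after 24 h compound exposure of transiently transfected HepG2 cells carrying a RORg-Gal4 chimera and GAL4-UAS reporters; DMSO served as baseline, with increasing signal fitted.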

[11] = target: human Retinoid X Receptor beta (RXRb), RXRB (gene 6257) (UniProt P28702); test: ATG_RXRb_TRANS: Attagene TRANS-FACTORIAL HepG2 Assay for human Retinoid X Receptor beta (RXRb) (AID 2283013)
Summary of the method: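 Multiplexed TRANS reporter assay in HepG2; 24 h dosing; reporter mRNA by RT-PCR/CE fluorescence; gain-of-signal relative to DMSO.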

[12] = target: human Thyroid Receptor alpha (THRa1), THRA (gene 7067) (UniProt P10827); test: ATG_THRa1_TRANS: Attagene TRANS-FACTORIAL HepG2 Assay for human Thyroid Receptor alpha (THRa1) (AID 2283014)
Summary of the method: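 HepG2 cells transiently transfected with multiplexed GAL4-UAS reporter units for exogenous chimeric THRa1-Gal4; reporter mRNA measured 24 h after dosing by RT-PCR, 6-FAM labelling, HpaI digestion and capillary electrophoresis. Gain-of-signal fitted versus DMSO baseline.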

[13] = target: human Vitamin D Receptor (VDR), VDR (gene 7421) (UniProt P11473); test: ATG_VDR_TRANS: Attagene TRANS-FACTORIAL HepG2 Assay for human Vitamin D Receptor (VDR) (AID 2283022)
Summary of the method: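 HepG2 cells were transiently transfected with multiple GAL4-UAS reporter units, so signal reflects exogenous chimeric receptor-Gal4 activity. After 24 h compound exposure, reporter mRNA was measured by RT-PCR, fluorescent labelling and capillary electrophoresis, fitted for gain of signal versus DMSO.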

[14] = target: rat Thyrotropin Releasing Hormone Receptor (TRH), Trhr (gene 25570) (UniProt Q01717); test: NVS_GPCR_rTRH: NovaScreen (NVS) G Protein-Coupled Receptor Assay for rat Thyrotropin Releasing Hormone Receptor (TRH) (AID 2283329);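 also: hit means lower bound tracer signal versus DMSO baseline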
Summary of the method: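 Rat forebrain membranes; radioligand displacement at TRH receptor by filter-based scintillation counting, read 4 h after dosing. Duplicate single-point screen at 25 uM, actives rerun in concentration series; loss of signal relative to DMSO.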

[15] = target: Nuclear receptor subfamily 1 group I member 2 (Homo sapiens) (UniProt O75469); test: NVS_NR_hPXR: NovaScreen (NVS) Nuclear Receptor Binding Assay for human Pregnane X Receptor (PXR) (AID 2283365);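 also: a drop in FRET signal versus DMSO baseline means the compound binds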
Summary of the method: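 Cell-free binding assay with extracted human PXR protein, read by TR-FRET 2 h after dosing; loss of signal relative to DMSO baseline indicates binding. Primary screen at 25 uM in duplicate, actives retested in concentration series.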

[16] = target: Retinoic acid receptor RXR-alpha (Homo sapiens) (UniProt P19793); test: OT_NURR1_NURR1RXRa_0480: Odyssey Thera (OT) 8-hour HEK293T Protein Complementation Assay for Nurr1/retinoid X receptor (RXR) (AID 2283385)
Summary of the method: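 Compounds are applied to HEK293T cells carrying Nurr1 and RXRα linked to reporter fragments. After 8 h, fluorescence intensity reports heterodimer formation, with DMSO as baseline.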

[17] = ACEA_ER_AUC_viability: ACEA Biosciences xCELLigence Real-Time Cell Analysis on Estrogen Receptor Agonism for Viability (AID 2283782);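 also: continuous compound exposure with impedance area under curve over 80 h; hit means loss of impedance signal meaning reduced cell growth or viability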
Summary of the method: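 T-47D; phenol red-free RPMI1640 + 10% CS-FBS; 8 conc., 1:4 serial, max 100 uM final, ≤0.5% DMSO; n = 2; continuous exposure; impedance monitored to 80 h post-dose; AUC vs DMSO.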

Measured: AC50

ClCCOP(OCCCl)OCCCl
inconclusive: [1] | [2] 164 nM | [3] | [4] | [5] | [6] | [7] 9.14 nM | [8] | [9] | [10] | [11] 1890 nM | [12] 608 nM | [13] | [14] 2.29 nM | [15] | [16] | [17]
